# Results are given in words; binding and its absence hold for the method and conditions named. Binding seen in cells or lysates may run through a third protein. Some entries that bind do so weakly or less than the wild type.
# Amino acid sequences for entries named in this document (tags omitted).
# UniProt P40763: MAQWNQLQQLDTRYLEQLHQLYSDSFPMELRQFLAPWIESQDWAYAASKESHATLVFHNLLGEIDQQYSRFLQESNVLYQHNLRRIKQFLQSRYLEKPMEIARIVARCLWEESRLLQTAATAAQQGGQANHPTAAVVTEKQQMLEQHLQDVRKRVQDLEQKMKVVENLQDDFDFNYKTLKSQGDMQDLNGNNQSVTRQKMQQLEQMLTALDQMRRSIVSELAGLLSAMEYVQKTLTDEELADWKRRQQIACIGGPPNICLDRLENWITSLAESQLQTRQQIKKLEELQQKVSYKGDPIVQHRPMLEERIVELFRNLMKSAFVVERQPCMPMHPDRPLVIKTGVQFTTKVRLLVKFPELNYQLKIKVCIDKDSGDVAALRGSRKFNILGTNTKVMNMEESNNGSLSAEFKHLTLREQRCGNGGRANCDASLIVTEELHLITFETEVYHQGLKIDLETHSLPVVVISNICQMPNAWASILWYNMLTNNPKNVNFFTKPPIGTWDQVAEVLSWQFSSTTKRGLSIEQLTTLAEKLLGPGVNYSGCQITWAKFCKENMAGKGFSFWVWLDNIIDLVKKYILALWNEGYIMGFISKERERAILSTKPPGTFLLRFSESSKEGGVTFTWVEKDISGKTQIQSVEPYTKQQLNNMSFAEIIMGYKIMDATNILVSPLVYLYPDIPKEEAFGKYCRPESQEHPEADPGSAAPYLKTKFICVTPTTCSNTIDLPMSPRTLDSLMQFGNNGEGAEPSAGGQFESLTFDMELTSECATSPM
# UniProt P24385: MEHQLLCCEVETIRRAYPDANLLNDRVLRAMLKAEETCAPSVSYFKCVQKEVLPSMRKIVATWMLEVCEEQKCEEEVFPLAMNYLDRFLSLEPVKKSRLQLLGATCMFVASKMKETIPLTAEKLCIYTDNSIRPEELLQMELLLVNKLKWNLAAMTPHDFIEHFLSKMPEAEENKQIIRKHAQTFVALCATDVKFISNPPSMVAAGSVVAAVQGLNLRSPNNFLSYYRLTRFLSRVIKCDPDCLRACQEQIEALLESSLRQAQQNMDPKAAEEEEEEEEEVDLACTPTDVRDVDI
# UniProt P01106: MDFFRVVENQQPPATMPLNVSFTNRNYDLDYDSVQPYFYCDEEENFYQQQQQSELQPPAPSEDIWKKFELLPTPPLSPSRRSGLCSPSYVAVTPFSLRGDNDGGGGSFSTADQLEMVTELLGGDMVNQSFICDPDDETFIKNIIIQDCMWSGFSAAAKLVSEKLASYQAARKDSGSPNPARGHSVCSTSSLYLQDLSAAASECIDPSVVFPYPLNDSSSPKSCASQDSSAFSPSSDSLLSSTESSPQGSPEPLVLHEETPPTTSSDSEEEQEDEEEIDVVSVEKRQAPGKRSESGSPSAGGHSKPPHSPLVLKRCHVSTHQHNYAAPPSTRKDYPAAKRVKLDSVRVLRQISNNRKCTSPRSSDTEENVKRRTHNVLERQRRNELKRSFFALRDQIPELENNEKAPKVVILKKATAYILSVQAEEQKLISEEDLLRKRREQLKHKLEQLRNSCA
# Target: signal transducer and activator of transcription 3 (human (endogenous in HN6 and Cal27)) (UniProt P40763)
# Assay: co-IP; lysate of HN6 or Cal27 cells transfected with lincRNA-p21 plasmid or vector for 48 h, incubated with anti-STAT3 monoclonal antibody at 4 °C overnight, then Protein A/G agarose beads for 4 h; immunoblot for Myc and Cyclin D1; endogenous proteins
row,binding,Substance
1,binds,Cyclin D1 (from UniProt P24385 1-295)
2,binds,Myc (from UniProt P01106 1-454)

# From paper PMC6410525
